Drawing on publication PMC3411835, this text covers binding for two molecules.

Protein sequences, listed by entry. Tags and fused reporters are not part of them. Residues count along the entry.
UniProt P15812, residues 32-388: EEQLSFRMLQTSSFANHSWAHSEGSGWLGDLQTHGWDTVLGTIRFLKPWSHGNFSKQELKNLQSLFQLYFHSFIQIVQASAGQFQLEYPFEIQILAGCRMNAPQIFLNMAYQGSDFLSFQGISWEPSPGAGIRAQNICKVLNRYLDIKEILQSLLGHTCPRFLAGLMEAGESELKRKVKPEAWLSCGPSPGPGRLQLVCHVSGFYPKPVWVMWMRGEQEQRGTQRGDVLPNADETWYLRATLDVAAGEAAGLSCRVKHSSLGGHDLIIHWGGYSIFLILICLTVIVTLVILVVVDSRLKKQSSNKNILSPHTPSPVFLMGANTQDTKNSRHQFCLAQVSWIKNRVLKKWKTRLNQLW
UniProt P22061: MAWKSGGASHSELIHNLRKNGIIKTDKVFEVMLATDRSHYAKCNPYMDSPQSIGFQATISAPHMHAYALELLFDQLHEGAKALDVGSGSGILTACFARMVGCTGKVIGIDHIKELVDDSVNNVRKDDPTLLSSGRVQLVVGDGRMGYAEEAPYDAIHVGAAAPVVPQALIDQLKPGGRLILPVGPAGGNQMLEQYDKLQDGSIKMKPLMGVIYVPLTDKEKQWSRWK

No constants are given. Whether binding was seen depends on the method and setting. In cells and extracts the contact can be indirect. These calls come from enrichment with a bait or labelling near it, and not all partners need be listed.

This assay deals with CD1e (transgenic, expressed in M10 melanoma cells) (human) (UniProt P15812). Kind of assay: affinity purification with mass spectrometry; M10 cells expressing CD1e or untransfected, 5 h bafilomycin; 1% Triton X-100, 150 mM NaCl, 20 mM Tris pH 8 lysate; CD1e immunoadsorbed on immobilised cross-linked mAb 20.6; SDS-PAGE, gel sections around 27 kD, trypsin, LC/MS/MS.

For the molecule “L-isoaspartate O-methyltransferase (encoded by PCMT1) (from UniProt P22061 1-227)”, the binding result was “binds”.

B1: lysosomal-associated transmembrane protein 5 (LAPTM5), endogenous in M10 cells (protein, UniProt Q13571 1-262)
chain: MDPRLSTVRQTCCCFNVRIATTALAIYHVIMSVLLFIEHSVEVAHGKASCKLSQMGYLRIADLISSFLLITMLFIISLSLLIGVVKNREKYLLPFLSLQIMDYLLCLLTLLGSYIELPAYLKLASRSRASSSKFPLMTLQLLDFCLSILTLCSSYMEVPTYLNFKSMNHMNYLPSQEDMPHNQFIKMMIIFSIAFITVLIFKVYMFKCVWRCYRLIKCMNSVEEKRNSKMLQKVVLPSYEEALSLPSKTPEGGPAPPPYSEV
Regarding B1, the binding result is “binds”.
